The RepoRT retention time repository (doi:10.1021/acs.analchem.2c02893)

Assay: RP, Thermo Scientific Acclaim RSLC 120 C18, 100 × 2.1 mm, 2.2 µm, 30 °C, 0.2 mL/min, estimated dead time 1.1 min; A: 90% water + 10% methanol + 0.01% formic acid + 5 mM ammonium formate, pH 3.61; B: methanol + 0.01% formic acid + 5 mM ammonium formate, pH 3.61; gradient (min/%B) 0/1 1/1 2/39 13/99.9 15/99.9 15.1/1 20.1/1
Conditions: stereoisomer not certain

LC retention time: 9.51 min
SMILES: O=C(c1ccccc1)c1ccccc1 [Benzophenone-d10]
